# Measured values published in paper PMC5342796.
# The chains behind the UniProt entries cited, without tags or fusion partners. Where a name states a change or a piece, a line headed by the entry shows the natural chain unless it says otherwise. A line that says so, or that is headed by a name, gives the form on record, which may keep a tag or linker. Residues count along the entry.
# UniProt Q9H6I2: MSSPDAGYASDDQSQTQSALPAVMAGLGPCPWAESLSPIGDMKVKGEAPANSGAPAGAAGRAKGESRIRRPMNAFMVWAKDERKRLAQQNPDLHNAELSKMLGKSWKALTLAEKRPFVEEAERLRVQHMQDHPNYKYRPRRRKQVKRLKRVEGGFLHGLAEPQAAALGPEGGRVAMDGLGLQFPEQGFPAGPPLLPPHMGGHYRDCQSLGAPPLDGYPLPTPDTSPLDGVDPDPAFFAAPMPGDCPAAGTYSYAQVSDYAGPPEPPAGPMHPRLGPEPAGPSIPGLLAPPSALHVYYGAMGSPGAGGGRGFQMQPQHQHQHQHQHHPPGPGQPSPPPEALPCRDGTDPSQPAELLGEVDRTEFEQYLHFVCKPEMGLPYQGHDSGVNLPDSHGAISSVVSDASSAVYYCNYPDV
# SOX17 N-terminus (aa 1-132), tagged: residues 1-132 of Q9H6I2
# SOX17 C-terminus (aa 201-414), tagged: residues 201-414 of Q9H6I2
# UniProt Q96JK9: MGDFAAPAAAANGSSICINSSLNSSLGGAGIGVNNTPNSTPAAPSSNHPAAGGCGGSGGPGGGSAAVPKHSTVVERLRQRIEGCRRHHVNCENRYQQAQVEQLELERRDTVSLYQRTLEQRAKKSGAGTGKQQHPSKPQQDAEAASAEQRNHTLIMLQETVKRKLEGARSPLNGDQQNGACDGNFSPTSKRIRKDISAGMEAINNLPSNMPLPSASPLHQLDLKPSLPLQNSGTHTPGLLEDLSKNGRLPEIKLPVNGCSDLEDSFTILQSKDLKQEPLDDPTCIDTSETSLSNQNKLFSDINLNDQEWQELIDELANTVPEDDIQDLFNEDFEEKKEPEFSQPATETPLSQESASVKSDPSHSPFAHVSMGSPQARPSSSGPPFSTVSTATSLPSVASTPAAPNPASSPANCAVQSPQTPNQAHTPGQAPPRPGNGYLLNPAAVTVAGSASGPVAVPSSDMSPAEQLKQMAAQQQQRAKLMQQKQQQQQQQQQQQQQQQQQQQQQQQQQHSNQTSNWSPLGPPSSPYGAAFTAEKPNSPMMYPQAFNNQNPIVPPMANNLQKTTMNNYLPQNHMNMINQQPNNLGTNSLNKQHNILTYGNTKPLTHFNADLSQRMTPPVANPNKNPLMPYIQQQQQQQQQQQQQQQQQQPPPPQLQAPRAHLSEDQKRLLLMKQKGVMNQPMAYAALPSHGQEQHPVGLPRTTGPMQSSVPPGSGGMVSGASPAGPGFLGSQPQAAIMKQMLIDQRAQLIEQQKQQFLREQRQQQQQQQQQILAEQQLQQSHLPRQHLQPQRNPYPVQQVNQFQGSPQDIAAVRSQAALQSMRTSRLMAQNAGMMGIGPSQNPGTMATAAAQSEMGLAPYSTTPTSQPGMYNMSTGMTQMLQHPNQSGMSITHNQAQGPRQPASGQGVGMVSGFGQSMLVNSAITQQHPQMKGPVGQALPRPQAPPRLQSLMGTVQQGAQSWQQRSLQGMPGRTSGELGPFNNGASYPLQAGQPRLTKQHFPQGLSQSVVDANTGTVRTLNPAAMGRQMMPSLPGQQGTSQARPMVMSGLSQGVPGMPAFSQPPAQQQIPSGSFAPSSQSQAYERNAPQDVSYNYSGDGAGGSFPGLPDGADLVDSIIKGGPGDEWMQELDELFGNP
# Results are given in words; binding and its absence hold for the method and conditions named. Binding seen in cells or lysates may run through a third protein. Binding calls can cover weak binding; strength is not graded here.
# What was measured:
# Assay in all cases: co-IP; HEK293 cells cotransfected with HA- or c-Myc-tagged full-length or fragment SOX17 and MAML3 vectors; blots with HA and c-Myc antibodies
# [1] = target: SOX17 N-terminus (aa 1-132), tagged (UniProt Q9H6I2)
# [2] = target: SOX17 C-terminus (aa 201-414), tagged (UniProt Q9H6I2)
# [3] = target: SOX17 full-length protein, tagged (UniProt Q9H6I2)
Substance,binding [1],binding [2],binding [3]
"MAML3 N-terminus (aa 1-506), tagged (from UniProt Q96JK9) (domain or fragment)",binds,binds,binds
"MAML3 C-terminus (aa 844-1134), tagged (from UniProt Q96JK9) (domain or fragment)",no binding,no binding,no binding
